# From PubChem BioAssay AID2685 (National Center for Advancing Translational Sciences (NCATS), 2010)
# The list shows a part of the results. Further columns of the screen follow, without active or inactive calls. Compounds called inactive in the main read-out are mostly missing here. Potencies come from curve fits of mixed quality, noted in brackets.
# Assay: qHTS Assay for Lipid Storage Modulators in Drosophila S3 Cells;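 on cell number change: cells counted by Cell Tracker Red CMTPX staining in the red channel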
# Details: BODIPY lipid droplet fluorescence, 18-24 h; for cell number change: measured here: cell count max response, cells fed with added oleic acid
# Summary of the method: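 Drosophila S3 cells loaded with oleic acid (400 uM, as added) and compounds at several concentrations; lipid droplets imaged by 488-nm laser-scanning cytometry, 500–530 nm intensity and object ratio to cell channel. Percent activity normalized to 20 uM Triacsin C.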
# [1] = measured here: cell number channel AC50, cells fed with added oleic acid
# [2] = measured here: lipid fluorescence (Fed channel) AC50, cells fed with added oleic acid
Compound,cell number change [%],AC50 [1],AC50 [2]
Cc1ccc2nc(N3CCN(Cc4ccc(F)cc4)C3=O)c(C)cc2c1,72.8,"14.6 µM [rising, partial curve]","5.8 µM [rising, single point]"
COc1ccc(OC)c(CNC(=O)C2CCC(=O)N2C(C)C)c1 (stereo not given),3.19,–,–
CCOC(=O)CCn1c2nc(C)cc(C)c2c(=O)n1-c1ccccc1,57.7,"4.61 µM [rising, full curve]","8.2 µM [rising, partial curve]"
CCn1nc(C(=O)NCCc2ccc(S(N)(=O)=O)cc2)c2ccccc2c1=O,1.6,–,"16.4 µM [falling, single point]"
O=C(c1ccc(NS(=O)(=O)c2cccs2)cc1)N1CCCCC1,-22.6,–,"20.6 µM [falling, single point]"
O=C(CCN1C(=O)S/C(=C\c2ccc(F)cc2)C1=O)Nc1ccc(O)cc1C(=O)O,–,–,"6.51 µM [falling, single point]"
COc1ccc(-c2noc(CCC(=O)Nc3ccc4c(c3)OCCO4)n2)cc1,26.7,"0.00461 µM [rising, full curve, poor fit]","6.51 µM [rising, single point]"
Cc1cccc(OCCCCn2c(CO)nc3ccccc32)c1,10.6,–,"1.64 µM [rising, partial curve, poor fit]"
COc1ccc2c(c1)c(CC(=O)OCC(=O)N(C)C)c(C)n2C(=O)c1ccc(Cl)cc1,-27.6,–,"0.562 µM [rising, full curve, poor fit]"
O=C(CC1NCCNC1=O)OCc1ccccc1 (stereo not given),-27.9,–,"29.1 µM [falling, single point]"
O=C(CCNC(=O)C1CCN(S(=O)(=O)c2ccccc2)CC1)NCc1cccc(Cl)c1,-9.63,–,"1.03 µM [rising, full curve]"
N#Cc1c(CSCC(=O)O)cc(=O)n2c1[nH]c1ccccc12,27.3,–,"29.1 µM [rising, single point]"
CCc1ccc[n+](-c2[nH]c(=O)sc2/C=N/N=C(\[O-])c2cccnc2)c1,-6.6,–,–
CC(Oc1ccccc1)C(=O)NC1CCCCCCC1 (stereo not given),9.38,–,"16.4 µM [falling, single point]"
CSCCC(NC(=O)/C(=C\c1ccc(Cl)cc1)NC(=O)c1ccccc1)C(=O)O (stereo not given),-15,–,"0.517 µM [falling, full curve]"
COc1ccccc1COC(=O)N/C=C/c1ccco1,23.4,"0.58 µM [rising, full curve, poor fit]",–
COc1cccc(C2CC(=O)NC(SC)=C2C#N)c1 (stereo not given),12.2,–,"3.26 µM [rising, partial curve]"
O=C(COC(=O)c1ccco1)NCC1CCCO1 (stereo not given),19.8,–,–
COc1ccc(-c2[nH]ncc2CN2CCC(C(=O)N3CCOCC3)CC2)c(F)c1,11.3,–,"6.51 µM [rising, partial curve]"
O=c1c2ccc(Cl)cc2[nH]c(=S)n1CCC1=CCCCC1,-35.7,"4.61 µM [falling, full curve]",–

Compound,cell number change [%],AC50 [1],AC50 [2]
CCCCOc1cccc(C(=O)Nc2ccc(NC(=O)c3ccco3)cc2)c1,19.1,–,–
O=C(/C=C/c1ccncc1)c1cc(Cl)ccc1O,-65.8,"29.1 µM [falling, single point]","29.1 µM [falling, single point]"
CCOC(=O)N1CCN(C(=S)NC(=O)c2nn(C)cc2Br)CC1,18.3,–,"0.651 µM [rising, full curve, poor fit]"
Cc1c(C(=O)N2CCCC2)oc2ccc(Br)cc12,7.93,–,"29.1 µM [rising, single point]"
CN(C)c1ccc(C(CNS(=O)(=O)c2ccc([N+](=O)[O-])cc2)N2CCOCC2)cc1 (stereo not given),-45,"29.1 µM [falling, single point]","29.1 µM [falling, single point]"
O=C(Nc1cccc(F)c1)Nc1ccc2c(c1)CCC2,-7.07,–,"0.164 µM [rising, partial curve, poor fit]"
Cc1cc(NC(=O)Nc2ccc(Cl)cc2)n(-c2ccccc2)n1,14.2,–,–
COc1ccc(/C=C2\SC(=S)N(Cc3cccnc3)C2=O)cc1C,-17.3,–,"29.1 µM [falling, single point]"
O=C(O)c1ccc(COc2ccccc2/C=C2\NC(=O)N(Cc3ccccc3)C2=O)cc1,36.2,"2.59 µM [rising, full curve]",–
O=C(CSc1nnc(COc2ccccc2)n1Cc1ccco1)Nc1ccc2c(c1)OCCO2,-53.7,"16.4 µM [falling, partial curve]","8.2 µM [falling, partial curve]"
N/C(=N\N=C\c1cccc([N+](=O)[O-])c1)c1nonc1N,4.08,–,"0.0058 µM [falling, full curve, poor fit]"
CCOc1ccc(C(=O)C(C)OC(=O)CN2C(=O)NC(C)(C)C2=O)cc1 (stereo not given),-7.48,–,–
CCOc1cc(C2C3=C(CC(C)(C)CC3=O)OC3=C2C(=O)CC(C)(C)C3)cc([N+](=O)[O-])c1O,-12.3,–,–
CCn1c(SC(C)C(=O)NC2CCCC2)nc2cc(S(N)(=O)=O)ccc21 (stereo not given),9.65,–,"6.51 µM [falling, single point]"
CCOC(=O)C1C(=O)CC(O)(c2ccccc2)CC1c1ccccc1 (stereo not given),-15.4,"6.51 µM [falling, single point]",–
CC(=O)N1N=C(c2ccncc2)CC1c1ccccc1O (stereo not given),-6.48,–,"20.6 µM [rising, single point]"
Cc1ccc(NC(=O)COC(=O)CNC(=O)C2CCCCC2)c(Br)c1,–,–,"0.116 µM [rising, single point]"
CCc1cc(Cn2nc(-c3ccccc3)cc2C(=O)NCc2ccc(C)cc2)on1,-35.8,"29.1 µM [falling, single point]","20.6 µM [falling, single point]"
COc1cccc(/C=N/NC(=O)c2cccc([N+](=O)[O-])c2)c1OS(=O)(=O)c1ccc(C)cc1,–,–,"2.91 µM [rising, single point]"

# A few values from the list:
# Value of Cc1c(C(=O)N2CCCC2)oc2ccc(Br)cc12 under cell number change [%]: 7.93
# Value of CCOc1cc(C2C3=C(CC(C)(C)CC3=O)OC3=C2C(=O)CC(C)(C)C3)cc([N+](=O)[O-])c1O under cell number change [%]: -12.3
